Taken from: PubChem BioAssay AID1053208 (Peter MacCallum Cancer Centre, 2014)
Assay: 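Genes whose silencing cuts survival of bone tumour cells only with doxorubicin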 (primary screen). System: mouse osteosarcoma cells, early-passage culture from an engineered mouse model of fibroblastic bone tumour. Knock-down reagent: siRNA pool against mouse genes, 40 nM. Time to read-out: about 120 h (48 h before drug, then 72 h with drug). Treatment: doxorubicin 100 nM for 72 h, roughly 30-40% inhibitory dose. Measurement: 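Viability read as ATP luminescence after 72 h of 100 nM doxorubicin or none, duplicate wells averaged, scaled to non-targeting siRNA, then expressed as robust z-scores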. Direction: viability z-score with doxorubicin and doxorubicin viability vs non-targeting: higher = more viable cells under doxorubicin; viability z-score without drug: higher = more viable cells with knock-down alone; z-score of drug to no-drug ratio: higher = less drug sensitisation by knock-down. Active means: 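Called active if knock-down leaves viability unchanged without drug (z within -2 to 2) but lowers it with doxorubicin (z at or under -2)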.
The deposit covers about 17,000 reagents; this is a random part of them. Over the whole deposit, 788 (4.7%) were called active. 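Calls rest on z-score classes alone; an extra cut-off of viability at most 70% of control was not applied to them.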 A reagent listed more than once was tested more than once; the source does not tell the runs apart. No sequences are given here.

no.	gene knocked down	combined z-score class	viability z-score with doxorubicin	viability z-score without drug	z-score of drug to no-drug ratio	doxorubicin viability vs non-targeting	Call
1	Drd3 (dopamine receptor D3)	no change with or without drug	0.34	1.01	-0.22	0.97	inactive
2	Nadk (NAD kinase)	no change with or without drug	-1.12	-1.18	-0.34	0.84	inactive
3	Or10g3 (olfactory receptor family 10 subfamily G member 3)	no change with or without drug	0.22	-0.51	0.67	0.96	inactive
4	Ctse (cathepsin E)	no change with or without drug	1.12	-0.51	1.69	1.04	inactive
5	Myef2 (myelin basic protein expression factor 2, repressor)	no change with or without drug	0.67	0.34	0.56	1	inactive
6	Bmpr1b (bone morphogenetic protein receptor, type 1B)	no change with or without drug	1.12	-0.84	2.02	1.04	inactive
7	Clec18a (C-type lectin domain family 18, member A)	no change with or without drug	0.34	-0.51	0.79	0.97	inactive
8	Sart3 (squamous cell carcinoma antigen recognized by T cells 3)	no change with or without drug	0.22	1.85	-0.79	0.96	inactive
9	Nosip (nitric oxide synthase interacting protein)	no change with or without drug	-1.8	0.51	-2.02	0.78	inactive
10	Dpys (dihydropyrimidinase)	no change with or without drug	-0.79	-0.84	-0.11	0.87	inactive
11	Ngf (nerve growth factor)	no change with or without drug	1.24	-0.51	1.8	1.05	inactive
12	F8 (coagulation factor VIII)	no change with or without drug	-0.67	-0.17	-0.45	0.88	inactive
13	Hmga2 (high mobility group AT-hook 2)	no change with or without drug	-0.45	-1.18	0.45	0.9	inactive
14	Fes (Fes proto-oncogene, tyrosine kinase)	no change with or without drug	-1.12	0.34	-1.24	0.84	inactive
15	Gimap1 (GTPase, IMAP family member 1)	high cell count with doxorubicin only	2.02	0.17	2.14	1.12	inactive
16	Pef1 (penta-EF hand domain containing 1)	no change with or without drug	1.69	1.01	1.12	1.09	inactive
17	1700128F08Rik (RIKEN cDNA 1700128F08 gene)	no change with or without drug	0.45	1.35	-0.34	0.98	inactive
18	Irf2bp1 (interferon regulatory factor 2 binding protein 1)	low cell count with doxorubicin only	-2.25	-1.01	-1.69	0.74	active
19	2210016L21Rik (RIKEN cDNA 2210016L21 gene)	low cell count with doxorubicin only	-4.27	-1.18	-3.82	0.56	active
20	Rtl8a (retrotransposon Gag like 8A)	no change with or without drug	-1.57	0	-1.57	0.8	inactive
21	Gna13 (guanine nucleotide binding protein, alpha 13)	no change with or without drug	-0.45	1.18	-1.12	0.9	inactive
22	Gzmk (granzyme K)	no change with or without drug	0.11	1.18	-0.56	0.95	inactive
23	Kremen1 (kringle containing transmembrane protein 1)	no change with or without drug	0.56	0	0.67	0.99	inactive
24	Pus3 (pseudouridine synthase 3)	no change with or without drug	-1.8	0.17	-1.91	0.78	inactive
25	Htr7 (5-hydroxytryptamine (serotonin) receptor 7)	no change with or without drug	0.22	0.17	0.22	0.96	inactive
26	Adra1a (adrenergic receptor, alpha 1a)	no change with or without drug	-0.45	-1.52	0.79	0.9	inactive
27	Adra1a (adrenergic receptor, alpha 1a)	no change with or without drug	0.34	0	0.45	0.97	inactive
28	Adamts15 (ADAM metallopeptidase with thrombospondin type 1 motif 15)	no change with or without drug	-1.01	-0.17	-0.9	0.85	inactive
29	Tecrl (trans-2,3-enoyl-CoA reductase-like)	no change with or without drug	0	-0.34	0.34	0.94	inactive
30	Il36b (interleukin 36B)	no change with or without drug	-0.9	-1.52	0.22	0.86	inactive
31	Yap1 (yes-associated protein 1)	no change with or without drug	-1.01	-1.85	0.34	0.85	inactive
32	Ubl5 (ubiquitin-like 5)	low cell count with doxorubicin only	-2.02	-1.35	-1.24	0.76	active
33	Lrrtm2 (leucine rich repeat transmembrane neuronal 2)	no change with or without drug	0.22	-0.34	0.56	0.96	inactive
34	Pole4 (polymerase (DNA-directed), epsilon 4 (p12 subunit))	no change with or without drug	1.12	-0.17	1.46	1.04	inactive

Sorted by “doxorubicin viability vs non-targeting” (ascending): 5 of the entries above
gene knocked down	combined z-score class	viability z-score with doxorubicin	viability z-score without drug	z-score of drug to no-drug ratio	doxorubicin viability vs non-targeting	Call
Fes (Fes proto-oncogene, tyrosine kinase)	no change with or without drug	-1.12	0.34	-1.24	0.84	inactive
F8 (coagulation factor VIII)	no change with or without drug	-0.67	-0.17	-0.45	0.88	inactive
Hmga2 (high mobility group AT-hook 2)	no change with or without drug	-0.45	-1.18	0.45	0.9	inactive
Pef1 (penta-EF hand domain containing 1)	no change with or without drug	1.69	1.01	1.12	1.09	inactive
Gimap1 (GTPase, IMAP family member 1)	high cell count with doxorubicin only	2.02	0.17	2.14	1.12	inactive
